Measurements reported in the supplement of paper PMC10849652.
The other results are listed elsewhere or left out.

Sequences of proteins named here, by UniProt entry; tags and fusion partners are left off. A change or cut given only in a name is not applied to a line headed by its entry.
UniProt Q96MP8: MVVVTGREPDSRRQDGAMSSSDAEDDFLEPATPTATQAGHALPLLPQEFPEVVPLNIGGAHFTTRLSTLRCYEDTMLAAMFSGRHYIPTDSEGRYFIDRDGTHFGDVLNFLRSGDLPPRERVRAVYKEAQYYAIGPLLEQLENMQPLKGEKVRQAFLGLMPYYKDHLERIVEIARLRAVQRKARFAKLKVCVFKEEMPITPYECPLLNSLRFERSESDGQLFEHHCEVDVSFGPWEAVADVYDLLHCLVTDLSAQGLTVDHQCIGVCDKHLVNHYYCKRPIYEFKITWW
UniProt Q13303: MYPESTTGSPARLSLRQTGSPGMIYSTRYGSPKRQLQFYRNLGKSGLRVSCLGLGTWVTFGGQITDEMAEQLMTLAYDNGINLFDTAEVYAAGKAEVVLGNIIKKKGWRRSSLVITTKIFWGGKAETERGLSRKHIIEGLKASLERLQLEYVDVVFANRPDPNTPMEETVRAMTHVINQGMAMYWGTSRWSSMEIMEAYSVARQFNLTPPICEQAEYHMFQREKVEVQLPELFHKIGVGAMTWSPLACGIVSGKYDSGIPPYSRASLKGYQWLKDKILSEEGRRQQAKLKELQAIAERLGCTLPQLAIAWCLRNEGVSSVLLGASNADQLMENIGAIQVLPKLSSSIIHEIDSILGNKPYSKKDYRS
UniProt Q8WVZ9: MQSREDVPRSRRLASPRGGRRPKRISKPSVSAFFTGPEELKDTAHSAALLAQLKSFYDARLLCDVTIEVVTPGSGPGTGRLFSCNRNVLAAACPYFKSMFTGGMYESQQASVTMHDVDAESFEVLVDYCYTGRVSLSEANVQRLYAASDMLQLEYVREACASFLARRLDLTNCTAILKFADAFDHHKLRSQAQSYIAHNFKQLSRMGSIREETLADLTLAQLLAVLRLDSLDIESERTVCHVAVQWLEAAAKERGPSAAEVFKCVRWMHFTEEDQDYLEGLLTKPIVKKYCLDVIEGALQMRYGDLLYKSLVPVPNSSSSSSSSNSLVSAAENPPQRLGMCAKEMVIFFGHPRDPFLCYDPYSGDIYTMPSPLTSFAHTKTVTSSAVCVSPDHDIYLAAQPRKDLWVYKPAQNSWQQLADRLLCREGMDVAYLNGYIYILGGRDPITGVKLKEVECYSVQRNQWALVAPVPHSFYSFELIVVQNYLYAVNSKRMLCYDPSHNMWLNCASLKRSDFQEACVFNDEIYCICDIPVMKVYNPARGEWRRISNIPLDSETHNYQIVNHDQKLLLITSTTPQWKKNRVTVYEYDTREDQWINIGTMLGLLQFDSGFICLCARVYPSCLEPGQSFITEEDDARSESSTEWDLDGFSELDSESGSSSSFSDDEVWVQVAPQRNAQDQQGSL
UniProt O00180: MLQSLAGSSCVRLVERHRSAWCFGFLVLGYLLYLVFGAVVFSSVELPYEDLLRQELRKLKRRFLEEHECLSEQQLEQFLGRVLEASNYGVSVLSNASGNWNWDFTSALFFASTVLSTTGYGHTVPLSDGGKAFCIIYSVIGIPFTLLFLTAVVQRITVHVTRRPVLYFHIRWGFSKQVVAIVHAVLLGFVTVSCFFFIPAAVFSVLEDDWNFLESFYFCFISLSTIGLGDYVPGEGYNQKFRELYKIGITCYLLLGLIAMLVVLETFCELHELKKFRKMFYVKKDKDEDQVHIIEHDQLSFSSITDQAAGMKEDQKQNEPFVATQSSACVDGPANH
UniProt Q92993, whole entry, looked up: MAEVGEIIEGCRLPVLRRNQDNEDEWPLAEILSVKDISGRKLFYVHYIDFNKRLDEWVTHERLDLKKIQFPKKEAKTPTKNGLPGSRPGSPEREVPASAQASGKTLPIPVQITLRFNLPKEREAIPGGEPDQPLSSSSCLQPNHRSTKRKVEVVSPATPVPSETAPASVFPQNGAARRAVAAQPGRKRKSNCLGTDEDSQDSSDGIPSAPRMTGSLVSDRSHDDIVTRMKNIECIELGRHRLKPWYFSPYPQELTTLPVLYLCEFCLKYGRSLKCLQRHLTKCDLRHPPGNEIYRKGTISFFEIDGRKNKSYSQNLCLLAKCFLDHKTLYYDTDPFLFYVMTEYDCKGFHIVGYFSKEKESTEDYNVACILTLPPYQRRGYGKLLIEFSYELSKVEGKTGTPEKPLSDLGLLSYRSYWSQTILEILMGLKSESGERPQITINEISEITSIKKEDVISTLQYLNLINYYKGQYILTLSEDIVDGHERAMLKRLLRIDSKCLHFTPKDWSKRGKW
UniProt O43731: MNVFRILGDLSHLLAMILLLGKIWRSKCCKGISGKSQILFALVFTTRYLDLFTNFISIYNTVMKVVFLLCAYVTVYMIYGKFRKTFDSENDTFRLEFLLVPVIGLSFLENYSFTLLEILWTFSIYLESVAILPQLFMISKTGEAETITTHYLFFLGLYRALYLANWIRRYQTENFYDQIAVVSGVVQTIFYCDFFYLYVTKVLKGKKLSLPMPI
UniProt Q63ZY3: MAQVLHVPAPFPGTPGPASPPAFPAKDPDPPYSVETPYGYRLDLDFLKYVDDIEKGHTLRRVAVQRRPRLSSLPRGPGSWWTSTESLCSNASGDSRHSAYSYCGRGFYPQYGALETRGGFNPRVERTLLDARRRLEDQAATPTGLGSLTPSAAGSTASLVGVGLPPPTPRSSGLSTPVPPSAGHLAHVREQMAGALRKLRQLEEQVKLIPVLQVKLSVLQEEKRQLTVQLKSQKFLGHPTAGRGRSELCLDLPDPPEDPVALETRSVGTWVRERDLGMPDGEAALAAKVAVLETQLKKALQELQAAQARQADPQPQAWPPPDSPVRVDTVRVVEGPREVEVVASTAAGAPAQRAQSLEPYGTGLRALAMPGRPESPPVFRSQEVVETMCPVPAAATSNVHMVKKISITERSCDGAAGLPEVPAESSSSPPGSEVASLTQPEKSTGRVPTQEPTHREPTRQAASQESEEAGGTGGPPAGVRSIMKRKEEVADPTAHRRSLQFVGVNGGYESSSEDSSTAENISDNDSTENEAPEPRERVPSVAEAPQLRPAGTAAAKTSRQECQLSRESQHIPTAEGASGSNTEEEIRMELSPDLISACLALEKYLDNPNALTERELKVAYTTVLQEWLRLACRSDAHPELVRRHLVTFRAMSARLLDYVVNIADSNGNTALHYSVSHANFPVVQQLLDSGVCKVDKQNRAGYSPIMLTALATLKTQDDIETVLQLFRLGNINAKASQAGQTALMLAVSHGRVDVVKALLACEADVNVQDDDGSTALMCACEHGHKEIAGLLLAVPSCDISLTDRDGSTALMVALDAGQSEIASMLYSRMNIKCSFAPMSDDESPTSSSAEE
UniProt Q96SY0, whole entry, looked up: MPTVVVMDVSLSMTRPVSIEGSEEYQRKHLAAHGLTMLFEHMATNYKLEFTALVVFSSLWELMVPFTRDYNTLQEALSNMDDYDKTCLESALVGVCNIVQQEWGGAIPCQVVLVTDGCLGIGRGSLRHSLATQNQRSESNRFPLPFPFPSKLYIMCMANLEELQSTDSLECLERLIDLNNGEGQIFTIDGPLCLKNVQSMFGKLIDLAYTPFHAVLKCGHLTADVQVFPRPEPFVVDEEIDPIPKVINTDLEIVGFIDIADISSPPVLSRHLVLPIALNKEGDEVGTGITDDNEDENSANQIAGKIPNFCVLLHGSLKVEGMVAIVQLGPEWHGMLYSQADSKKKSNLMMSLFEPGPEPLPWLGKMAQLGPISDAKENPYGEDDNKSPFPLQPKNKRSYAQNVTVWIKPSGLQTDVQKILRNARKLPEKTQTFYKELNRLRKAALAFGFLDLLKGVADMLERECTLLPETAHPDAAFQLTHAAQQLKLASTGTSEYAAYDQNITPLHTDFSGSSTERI
UniProt Q9Y573: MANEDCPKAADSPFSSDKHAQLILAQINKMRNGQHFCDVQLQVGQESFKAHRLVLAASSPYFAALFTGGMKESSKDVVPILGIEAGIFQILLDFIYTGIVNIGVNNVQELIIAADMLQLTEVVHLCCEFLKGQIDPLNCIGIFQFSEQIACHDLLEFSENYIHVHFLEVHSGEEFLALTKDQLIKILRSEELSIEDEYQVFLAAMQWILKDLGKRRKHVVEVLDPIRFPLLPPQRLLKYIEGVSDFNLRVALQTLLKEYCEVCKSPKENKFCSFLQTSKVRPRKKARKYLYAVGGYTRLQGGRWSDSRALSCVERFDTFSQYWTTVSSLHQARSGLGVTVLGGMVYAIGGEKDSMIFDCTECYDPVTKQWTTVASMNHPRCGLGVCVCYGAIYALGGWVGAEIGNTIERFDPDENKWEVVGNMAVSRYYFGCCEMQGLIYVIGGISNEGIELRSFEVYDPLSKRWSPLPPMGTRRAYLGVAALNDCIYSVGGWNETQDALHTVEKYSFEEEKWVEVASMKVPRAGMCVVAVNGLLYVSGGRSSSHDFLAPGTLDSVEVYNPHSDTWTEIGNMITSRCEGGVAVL
UniProt Q9H0H0, whole entry, looked up: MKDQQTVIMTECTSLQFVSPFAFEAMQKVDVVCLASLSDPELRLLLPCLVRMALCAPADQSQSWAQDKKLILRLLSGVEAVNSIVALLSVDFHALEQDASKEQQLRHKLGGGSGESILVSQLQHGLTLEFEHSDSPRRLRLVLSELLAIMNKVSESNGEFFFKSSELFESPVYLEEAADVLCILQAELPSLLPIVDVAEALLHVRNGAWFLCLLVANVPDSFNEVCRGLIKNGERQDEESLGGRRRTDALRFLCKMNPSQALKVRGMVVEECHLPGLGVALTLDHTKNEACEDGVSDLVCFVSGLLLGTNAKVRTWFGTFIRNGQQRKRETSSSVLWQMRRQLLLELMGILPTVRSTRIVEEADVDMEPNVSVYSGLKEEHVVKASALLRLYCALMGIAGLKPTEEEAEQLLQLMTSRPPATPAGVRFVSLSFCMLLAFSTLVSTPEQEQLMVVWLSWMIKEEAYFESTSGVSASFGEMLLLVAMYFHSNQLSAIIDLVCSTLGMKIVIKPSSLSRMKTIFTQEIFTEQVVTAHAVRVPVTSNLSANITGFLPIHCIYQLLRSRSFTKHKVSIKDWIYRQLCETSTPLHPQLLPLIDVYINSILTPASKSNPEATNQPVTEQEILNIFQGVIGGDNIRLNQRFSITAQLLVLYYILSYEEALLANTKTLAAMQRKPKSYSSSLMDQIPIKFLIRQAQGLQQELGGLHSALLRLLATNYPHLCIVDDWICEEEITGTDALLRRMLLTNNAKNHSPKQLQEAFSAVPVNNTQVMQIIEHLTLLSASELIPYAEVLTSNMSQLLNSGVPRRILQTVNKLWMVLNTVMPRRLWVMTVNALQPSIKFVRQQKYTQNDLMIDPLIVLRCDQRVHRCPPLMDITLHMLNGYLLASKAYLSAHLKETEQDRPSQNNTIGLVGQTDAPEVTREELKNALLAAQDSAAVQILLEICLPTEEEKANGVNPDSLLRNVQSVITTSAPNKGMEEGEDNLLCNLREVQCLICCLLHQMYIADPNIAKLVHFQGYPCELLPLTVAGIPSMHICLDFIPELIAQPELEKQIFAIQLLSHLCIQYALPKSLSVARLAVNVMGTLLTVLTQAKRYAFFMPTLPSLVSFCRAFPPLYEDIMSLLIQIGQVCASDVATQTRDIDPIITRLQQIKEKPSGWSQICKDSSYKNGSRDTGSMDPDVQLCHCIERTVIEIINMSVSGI
UniProt Q14681: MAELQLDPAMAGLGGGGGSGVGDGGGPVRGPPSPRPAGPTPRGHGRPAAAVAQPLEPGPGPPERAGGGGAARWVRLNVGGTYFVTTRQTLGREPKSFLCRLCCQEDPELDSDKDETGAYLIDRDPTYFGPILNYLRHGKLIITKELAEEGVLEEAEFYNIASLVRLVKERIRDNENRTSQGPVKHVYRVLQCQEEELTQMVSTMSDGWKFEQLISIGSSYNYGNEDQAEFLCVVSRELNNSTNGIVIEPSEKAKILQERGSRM
UniProt Q7Z5L9: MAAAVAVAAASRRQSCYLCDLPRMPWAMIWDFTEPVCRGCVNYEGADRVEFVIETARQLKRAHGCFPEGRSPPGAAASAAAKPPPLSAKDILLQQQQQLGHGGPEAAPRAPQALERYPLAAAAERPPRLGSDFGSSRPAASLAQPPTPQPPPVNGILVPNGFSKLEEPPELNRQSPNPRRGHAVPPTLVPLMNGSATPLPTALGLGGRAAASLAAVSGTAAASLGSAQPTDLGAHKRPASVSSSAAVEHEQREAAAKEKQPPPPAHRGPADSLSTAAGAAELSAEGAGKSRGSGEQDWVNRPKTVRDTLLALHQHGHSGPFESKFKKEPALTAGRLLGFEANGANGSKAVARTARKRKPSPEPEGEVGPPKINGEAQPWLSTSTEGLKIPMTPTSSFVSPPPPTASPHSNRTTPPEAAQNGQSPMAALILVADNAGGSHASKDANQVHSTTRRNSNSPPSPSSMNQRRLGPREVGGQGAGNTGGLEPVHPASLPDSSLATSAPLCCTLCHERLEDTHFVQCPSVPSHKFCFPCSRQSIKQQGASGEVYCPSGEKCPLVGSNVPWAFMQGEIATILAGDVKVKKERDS

Legend:
Assay in all cases: log2 fold change, soluble protein after heating vs DMSO (PISA); higher = thermal stabilisation; K562 lysate, 10 uM; active = over 0.2 and 3.5 SD of the protein, either way, in both replicates (recomputed)
vemurafenib = compound: CCCS(=O)(=O)Nc1ccc(F)c(C(=O)c2c[nH]c3ncc(-c4ccc(Cl)cc4)cc23)c1F [vemurafenib]
Method in brief: (§1)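 Following dounce homogenisation of K562 pellets in PBS pH 7.4 with 1 mM MgCl2, crude extract at 1 mg/mL protein was incubated for 30 min with 10 μM compound. Aliquots were then heated for 3 min over 48°C-58°C and pooled, NP-40 was added to 0.5% at 4°C, and soluble protein was recovered as the supernatant at 21,000xg for 90 min. Channel-sum-equalised TMTpro 16plex LC-MS/MS quantified this protein. Each value, from duplicates, is a log-two fold change in thermal stability relative to solvent controls.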

[1] = compound: CCCS(=O)(=O)Nc1ccc(F)c(C(=O)c2c[nH]c3ncc(Cl)cc23)c1F
Method in brief: as §1

barasertib = compound: CCN(CCCOc1ccc2c(Nc3cc(CC(=O)Nc4cccc(F)c4)[nH]n3)ncnc2c1)CCOP(=O)(O)O [barasertib]
Method in brief: as §1

[2] = compound: CC[C@@H]1C(=O)N(C)c2cnc(Nc3ccc(C(=O)NC4CCN(C)CC4)cc3OC)nc2N1C1CCCC1
Method in brief: as §1

volasertib = compound: CC[C@@H]1C(=O)N(C)c2cnc(Nc3ccc(C(=O)N[C@H]4CC[C@H](N5CCN(CC6CC6)CC5)CC4)cc3OC)nc2N1C(C)C [volasertib]
Method in brief: as §1

[3] = compound: CCn1c(C(=O)N(C2CC2)C2CC2)cc2c3c(ncn3C)c(Nc3cc(C)n(C)n3)nc21
Method in brief: as §1

[4] = compound: CCn1cc(-c2ccnc3[nH]c(-c4cccc(CN(C)C)c4)cc23)c(-c2ccc(NC(=O)N(C)C)cc2)n1
Method in brief: as §1

[5] = compound: CN1CCC(CNc2ccc3ncc(-c4cccc(OC(F)(F)F)c4)n3n2)CC1
Method in brief: as §1

saracatinib = compound: CN1CCN(CCOc2cc(OC3CCOCC3)c3c(Nc4c(Cl)ccc5c4OCO5)ncnc3c2)CC1 [saracatinib]
Method in brief: as §1

sotrastaurin = compound: CN1CCN(c2nc(C3=C(c4c[nH]c5ccccc45)C(=O)NC3=O)c3ccccc3n2)CC1 [sotrastaurin]
Method in brief: as §1

Measured: log2 fold change

ITPA (UniProt Q9BY32)
inactive: vemurafenib 0.057 | [1] 0.013 | barasertib 0.004 | [2] 0 | volasertib -0.01 | [3] -0.022 | [4] -0.038 | [5] 0.08 | saracatinib 0.005 | sotrastaurin -0.05

IQGAP3 (UniProt Q86VI3)
inactive: vemurafenib 0.374 | [1] 0.138 | barasertib -0.2 | volasertib -0.078 | [3] 0.03 | [4] -0.027 | [5] 0.041 | saracatinib 0.038 | sotrastaurin 0.109

KCTD7 (UniProt Q96MP8)
inactive: vemurafenib 0.083 | [1] 0.39 | [2] 0.042 | volasertib 0.243 | [3] 0.096 | saracatinib -0.165 | sotrastaurin -0.123

KATNAL1 (UniProt Q9BW62)
inactive: vemurafenib 0.054 | [1] 0.037 | barasertib 0.044 | [2] -0.117 | volasertib 0.024 | [3] -0.105 | [4] 0.084 | [5] -0.135 | saracatinib 0.013 | sotrastaurin 0.04

KCNAB2 (UniProt Q13303)
inactive: vemurafenib 0.036 | [1] 0.018 | barasertib -0.022 | [2] -0.07 | volasertib -0.001 | [3] 0.007 | [4] -0.101 | [5] 0.067 | saracatinib -0.01 | sotrastaurin 0.042

KAZN (UniProt Q674X7)
inactive: vemurafenib 0.047 | [1] -0.012 | barasertib 0 | [2] 0.002 | volasertib -0.008 | [3] -0.081 | [4] -0.044 | [5] 0.112 | saracatinib 0.016 | sotrastaurin -0.023

KBTBD7 (UniProt Q8WVZ9)
inactive: vemurafenib 0.043 | [1] -0.081 | barasertib 0.064 | [2] -0.012 | volasertib 0.096 | [3] 0.031 | saracatinib 0.051 | sotrastaurin 0.091

ITIH4 (UniProt Q14624)
inactive: vemurafenib -0.035 | barasertib 0.04 | [2] 0.197 | [3] -0.09 | [4] -0.007 | [5] 0.076 | saracatinib 0.11

ISG20L2 (UniProt Q9H9L3)
inactive: vemurafenib -0.018 | [1] -0.01 | [2] 0.212 | volasertib -0.013 | [3] -0.043 | [4] 0.02 | [5] -0.038 | saracatinib -0.149

KCNK1 (UniProt O00180)
inactive: vemurafenib -0.094 | [1] -0.008 | barasertib 0.082 | [2] 0.149 | volasertib -0.038 | [4] 0.133 | [5] 0.027 | saracatinib -0.258

KDM2A (UniProt Q9Y2K7)
inactive: vemurafenib 0.069 | barasertib 0.154 | [2] 0 | [3] 0.151 | [4] -0.102 | [5] -0.034 | saracatinib -0.032

KAT5 isoform 3 (UniProt Q92993)
inactive: vemurafenib -0.013 | [1] 0.132 | barasertib 0.016 | [2] 0 | volasertib -0.153 | [4] -0.03 | [5] 0.084 | saracatinib 0.059 | sotrastaurin 0.115

Taken from the listing (six entries):
KAZN (UniProt Q674X7)
inactive: vemurafenib 0.047 | [1] -0.012 | barasertib 0 | [2] 0.002 | volasertib -0.008 | [3] -0.081 | [4] -0.044 | [5] 0.112 | saracatinib 0.016 | sotrastaurin -0.023

KBTBD7 (UniProt Q8WVZ9)
inactive: vemurafenib 0.043 | [1] -0.081 | barasertib 0.064 | [2] -0.012 | volasertib 0.096 | [3] 0.031 | saracatinib 0.051 | sotrastaurin 0.091

ITIH4 (UniProt Q14624)
inactive: vemurafenib -0.035 | barasertib 0.04 | [2] 0.197 | [3] -0.09 | [4] -0.007 | [5] 0.076 | saracatinib 0.11

ISG20L2 (UniProt Q9H9L3)
inactive: vemurafenib -0.018 | [1] -0.01 | [2] 0.212 | volasertib -0.013 | [3] -0.043 | [4] 0.02 | [5] -0.038 | saracatinib -0.149

KCNK1 (UniProt O00180)
inactive: vemurafenib -0.094 | [1] -0.008 | barasertib 0.082 | [2] 0.149 | volasertib -0.038 | [4] 0.133 | [5] 0.027 | saracatinib -0.258

KDM2A (UniProt Q9Y2K7)
inactive: vemurafenib 0.069 | barasertib 0.154 | [2] 0 | [3] 0.151 | [4] -0.102 | [5] -0.034 | saracatinib -0.032

Continued:

IRAK4 (UniProt Q9NWZ3)
inactive: vemurafenib -0.028 | [1] -0.005 | barasertib 0.107 | [2] -0.085 | volasertib -0.022 | [3] 0.063 | [4] 0.001 | [5] 0.19 | saracatinib 0.045 | sotrastaurin -0.022

KDELR3 (UniProt O43731)
inactive: vemurafenib -0.114 | [1] 0.068 | [2] -0.187 | volasertib -0.035 | [3] -0.043 | [4] -0.12 | [5] 0.204 | saracatinib 0.017 | sotrastaurin -0.088

IQUB (UniProt Q8NA54)
inactive: vemurafenib -0.307 | [1] 0.083 | barasertib 0.064 | volasertib 0.006 | [4] 0.068 | [5] -0.051

KANK2 isoform 2 (UniProt Q63ZY3)
inactive: vemurafenib -0.197 | [1] 0.037 | [2] -0.079 | volasertib 0.027 | [3] -0.02 | [4] 0.016 | [5] -0.17 | saracatinib 0.062

KCTD21 (UniProt Q4G0X4)
inactive: vemurafenib -0.02 | barasertib 0.197 | [2] -0.087 | [3] -0.134 | sotrastaurin -0.032

JMJD4 (UniProt Q9H9V9)
inactive: vemurafenib 0.002 | [1] 0.017 | barasertib -0.012 | [2] 0.028 | volasertib 0.092 | [3] 0.152 | [4] -0.151 | [5] 0.045 | saracatinib 0.042 | sotrastaurin -0.056

IPO5 (UniProt H0Y3V4)
inactive: vemurafenib -0.002 | [1] -0.035 | [2] 0.006 | volasertib -0.126 | [3] -0.002 | [4] 0.003 | [5] 0.069 | saracatinib 0.061

INTS14 (UniProt Q96SY0)
inactive: vemurafenib -0.046 | [1] 0.034 | barasertib -0.021 | [2] 0.019 | volasertib -0.013 | [3] -0.017 | [4] -0.071 | [5] 0.008 | saracatinib -0.019 | sotrastaurin 0.001

KDF1 (UniProt Q8NAX2)
inactive: vemurafenib 0.063 | [1] -0.025 | barasertib 0.037 | volasertib -0.013 | sotrastaurin -0.021

IPP (UniProt Q9Y573)
inactive: vemurafenib -0.102 | [1] 0.056 | [2] 0.169 | volasertib -0.162 | [3] 0.006 | [4] 0.057 | [5] -0.014 | saracatinib -0.035

ITPR1 (UniProt Q14643)
inactive: vemurafenib 0.187 | [1] -0.136 | barasertib 0.049 | [2] -0.038 | volasertib -0.043 | [3] -0.013 | [4] -0.043 | [5] 0.116 | sotrastaurin -0.037

INTS2 (UniProt Q9H0H0)
inactive: vemurafenib -0.084 | [1] 0.081 | barasertib 0.043 | [2] -0.071 | volasertib -0.105 | [3] 0.028 | [4] 0.075 | [5] -0.034 | saracatinib -0.046 | sotrastaurin 0.042

KCNK5 (UniProt O95279)
inactive: vemurafenib -0.095 | [1] 0.134 | barasertib 0.023 | volasertib -0.038 | [4] 0.272 | [5] 0.05 | saracatinib 0.102 | sotrastaurin -0.055

KCTD2 (UniProt Q14681)
inactive: vemurafenib 0.083 | [1] 0.152 | barasertib -0.03 | [2] -0.051 | volasertib -0.26 | [4] 0.024 | [5] 0.1 | saracatinib -0.086 | sotrastaurin 0.008

IRF2BP2 (UniProt Q7Z5L9)
inactive: vemurafenib -0.003 | [1] 0.024 | barasertib -0.023 | [2] 0.077 | volasertib 0.001 | [3] -0.01 | [4] 0.018 | [5] 0.067 | saracatinib 0.044 | sotrastaurin -0.004

IST1 isoform 2 (UniProt P53990)
inactive: vemurafenib -0.125 | [1] 0.29 | [2] 0.156 | volasertib 0.113 | [3] 0.009 | saracatinib 0.078 | sotrastaurin -0.012

ITIH2 (UniProt P19823)
inactive: vemurafenib 0.038 | [1] 0.049 | barasertib -0.016 | [2] 0.079 | volasertib 0.026 | [3] -0.106 | [4] -0.011 | [5] 0.051 | sotrastaurin 0.046

INTU (UniProt Q9ULD6)
inactive: vemurafenib 0.182 | [3] 0.144

ISL2 (UniProt Q96A47)
active: [4] 0.832 | [5] -0.397
inactive: barasertib -0.108 | [3] 0.018 | saracatinib 0.028 | sotrastaurin -0.107

IQCB1 (UniProt Q15051)
inactive: vemurafenib -0.073 | barasertib 0.066 | [2] -0.068 | [4] -0.085 | [5] -0.145 | saracatinib -0.175
